The other results are listed elsewhere or left out. These are further read-outs of the screen, such as a control signal, another cell line or another target. No call is given for them. Compounds called inactive in the main read-out are mostly missing here. Potencies come from curve fits of mixed quality, noted in brackets.

This experiment can be described thus: qHTS Assay to Find Inhibitors of Chronic Active B-Cell Receptor Signaling. Particulars: ABC-DLBCL IkBa-CBG/CBR reporter, luminescence ratio (green luciferase fused to IkBa over red control in TMD8 lymphoma cells), 4 h. The gist of the method:
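Doxycycline induced both beetle luciferases in TMD8 lymphoma cells; IKK-driven degradation limits the IkappaBalpha-fused green signal, while red luminescence normalises for cell number and nonspecific effects. Compounds tested up to 46 uM, 4 hrs.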
A general note: Quantitative high-throughput screening tests each substance at several concentrations.

[1] abbreviates: measured here: CBR red luminescence, cell number.
Where [2] appears, read: measured here: IkBa-CBG green luminescence.

In general, AC50 refers to the concentration giving half of the maximal activity seen. With `O=C(Nc1nccs1)c1ccc(Br)c(S(=O)(=O)N2CCCC2)c1`, under setting [1], the AC50 is 7.94 µM [falling, partial curve, poor fit].

Consider `COC(=O)CSc1nc(N)nc(C)c1Cl`, for which the AC50 under setting [1] was 15.8 µM [rising, partial curve, poor fit].

Consider `O=C(Cc1cccs1)Nc1nnc(Cc2ccccc2)s1`, for which the AC50 under setting [1] was 18.4 µM [rising, partial curve].

In the case of `O=[N+]([O-])c1cnccc1NC1CCCCC1`, under setting [1], the AC50 is 12.6 µM [rising, partial curve, poor fit].

Regarding `N#C/C(=C/c1ccc(Sc2nc3ccccc3[nH]2)o1)c1ccccc1F`, the AC50 under setting [1] is 32.6 µM [falling, single point].

As for `COc1ccc(C2Nc3ccccc3-c3cc(C)nn32)c(OC)c1` (centres undefined), the half-maximal activity concentration (AC50) under setting [1] is 35.5 µM [falling, single point].

As to `COc1ccc2oc(=Nc3ccccc3)c(-c3nc4ccccc4[nH]3)cc2c1`, under setting [1], the AC50 was 32.6 µM [falling, single point].

For `O=C(N/N=C/c1ccccn1)c1cc(-c2ccc(Cl)cc2)nc2ccccc12`, the AC50 by setting is: under setting [1], 16.4 µM [rising, single point]; under setting [2], 25.9 µM [falling, single point].

Regarding `COc1cccc(NC(=O)c2cnc(SC)nc2C)c1`, under setting [1], the AC50 is 10 µM [falling, partial curve, poor fit].

In the case of `Cc1ccc(NC(=O)c2ccc(Cn3cc(Br)cn3)o2)cc1`, the AC50 under setting [1] is 1.84 µM [rising, partial curve, poor fit].

With `COc1ccc(-c2csc(NC(=S)NC(=O)c3ccc(S(=O)(=O)N(C)C)cc3)n2)cc1OC`, the AC50 under setting [1] was 3.98 µM [rising, partial curve, poor fit].

For the molecule `COc1ccc(C)cc1NC(=O)c1cc2cc3ccc(C)cc3nc2o1`, under setting [1], the AC50 is 1 µM [falling, partial curve, poor fit].

Turning to `O=C(Nc1nnc(C2=COCCO2)o1)c1ccc(Cl)cc1`, the concentration at half-maximal activity (AC50) under setting [1] is 20.6 µM [falling, partial curve, poor fit].

In the case of `COc1ccc(-c2sc3ccc(OC)cc3c2C#CCCO)cc1`, the AC50 under setting [1] is 31.6 µM [rising, single point].

For `O=C(Nc1cccc(O)c1)c1c(O)c2ccccc2[nH]c1=O`, under setting [1], the AC50 was 35.5 µM [falling, single point].

As to `COc1ccccc1NC(=O)C(=O)NNS(=O)(=O)c1ccc2ccccc2c1`, the AC50 under setting [1] was 7.94 µM [falling, partial curve].

For `CCOC(=O)C(C)N1C(=O)S/C(=C/c2ccc3c(c2)n(C)c(=O)n3C)C1=O` (centres undefined), the AC50 runs as follows: under setting [1], 11.2 µM [rising, partial curve]; under setting [2], 12.6 µM [falling, partial curve].

Turning to `CCOC(=O)CN(C(=O)CSc1nnc(-c2cccc(OC)c2)o1)c1ccc(F)cc1`, the AC50 under setting [1] is 15.8 µM [falling, partial curve].

Turning to `Cc1nn(-c2ccccn2)c2c1C(c1c(F)cccc1Cl)C1=C(N2)c2ccccc2C1=O` (centres undefined), the AC50 under setting [1] is 1.84 µM [rising, partial curve].

Regarding `COc1ccc(NC(=O)c2cc([N+](=O)[O-])ccc2NC(=O)CNCc2ccccn2)c(OC)c1`, the AC50 under setting [1] is 11.2 µM [falling, single point].

As to `COc1ccc(NC(=O)/C(C#N)=C/c2ccc3c(c2)n(C)c(=O)n3C)cc1`, the AC50 under setting [1] was 10.3 µM [rising, partial curve].

As for `O=C(Nc1nc(-c2ccc(Oc3ccccc3)cc2)cs1)C1=COCCO1`, the half-maximal activity concentration (AC50) under setting [1] is 10.3 µM [rising, partial curve, poor fit].

Consider `COc1ccc(C2=CCN3CCCCC3C2)c(-c2ccc(OC)c(OC)c2)c1` (centres undefined), for which the AC50 under setting [1] is 29.1 µM [rising, single point].

With `Cc1ccc(S(=O)(=O)N2CCCN(S(=O)(=O)C3CCS(=O)(=O)C3)CC2)cc1` (centres undefined), the AC50 under setting [1] was 29.1 µM [rising, single point].

With `CCOC(=O)Cn1c(C)c(Br)c(=O)c2cccc(C)c21`, the AC50 under setting [1] is 35.5 µM [rising, single point].

Consider `Cc1ccccc1NC(=O)/C(C#N)=C/c1ccc[nH]1`, for which the AC50 under setting [1] was 11.2 µM [falling, partial curve].

Take `COc1ccc2cc(-c3cccnc3)ncc2c1`: the AC50 under setting [1] is 16.4 µM [falling, single point].

As to `CCOc1ccc2nc(N(Cc3cccnc3)C(=O)c3cccs3)sc2c1`, the AC50 under setting [1] was 1.12 µM [rising, full curve, poor fit].

For `CCC(C)(C)C1CCC(=NNC(=O)c2ccoc2C)CC1` (centres undefined), under setting [1], the AC50 was 9.2 µM [falling, partial curve].

As to `CCC1=NN(C(=O)c2ccc(C)cc2)C(O)(c2ccc(Br)cc2)C1` (centres undefined), the AC50 under setting [1] was 23.1 µM [falling, single point].

As to `O=C(Nc1ccccc1)NC1CCCc2ccccc21` (centres undefined), the concentration at half-maximal activity (AC50) under setting [1] is 3.55 µM [falling, partial curve, poor fit].

`Cc1cc(NC(=O)c2ccc3c(c2)OCCO3)no1`: the AC50 under setting [1] was 29.1 µM [falling, single point].

For `Cc1ccccc1C(=O)Nc1nnc(CC(=O)N/N=C/c2cn(Cc3ccccc3)c3ccccc23)s1`, the AC50 under setting [1] is 35.5 µM [falling, single point].

Take `FC(F)(Cl)c1nnc2ccc(Cl)nn12`: the AC50 is 25.1 µM [falling, single point] under setting [1] and 35.5 µM [falling, single point] under setting [2].

For `CC(N=Cc1cccc(O)c1O)c1ccccc1` (centres undefined), the AC50 under setting [1] was 8.2 µM [rising, partial curve].

On to `CN(C)C(=O)CSc1cccc2cccnc12`, for which, under setting [2], the AC50 was 18.4 µM [falling, single point].

On to `CCN1C(=O)CS/C1=N\S(=O)(=O)c1ccccc1`, for which the AC50 under setting [1] was 0.562 µM [falling, full curve, poor fit].

In the case of `Cc1nc(SCC(=O)NNC(=O)c2cccs2)[nH]c(=O)c1C`, the AC50 under setting [1] was 11.2 µM [falling, partial curve].

Regarding `Cc1ccc(C)c(NC(=O)CSc2nc3nc(-c4cccs4)cc(C(F)(F)F)c3c(=O)[nH]2)c1`, the concentration at half-maximal activity (AC50) by setting is: under setting [1], 35.5 µM [falling, single point]; under setting [2], 25.1 µM [rising, partial curve, poor fit].

As to `O=C(C[n+]1cc(-c2ccc(F)cc2)n2c1CCC2)c1cccs1`, the AC50 under setting [1] is 1.26 µM [falling, full curve, poor fit].

On to `Cc1[nH]n(C(N)=S)c(=O)c1N=Nc1cc(C(F)(F)F)ccc1Cl`, for which the concentration at half-maximal activity (AC50) under setting [1] is 31.6 µM [rising, single point].

Take `Cc1ccccc1NC(=O)c1cc(C(=O)c2cc(Cl)ccc2O)cn(-c2ccccc2C)c1=O`: the AC50 under setting [1] is 32.6 µM [falling, single point].

As for `COc1ccc(/C=N/Nc2ccc(C(=O)O)cc2)cc1Br`, under setting [2], the AC50 is 1.41 µM [rising, full curve, poor fit].

`Cc1sc2nc(COC(=O)c3ccc(Cl)c(N)c3)[nH]c(=O)c2c1C`: the AC50 under setting [1] was 7.08 µM [falling, partial curve].

With `CC(C)Cc1nnc(NC(=O)c2ccc3c(c2)OCCO3)s1`, the half-maximal activity concentration (AC50) under setting [1] is 23.1 µM [falling, partial curve].

On to `Cc1ccc(NC(=O)CN(C)CC(=O)Nc2ccc(N3CCOCC3)cc2)cc1F`, for which the AC50 under setting [1] was 12.6 µM [falling, partial curve].

Turning to `COc1ccc(C(=O)/C=C(\C)Nc2ccc(NC(C)=O)cc2)cc1`, the AC50 under setting [1] is 15.8 µM [rising, single point].

Turning to `Cc1cc(N2CCOCC2)n2nc(C)c(-c3ccccc3)c2n1`, the AC50 under setting [1] was 7.08 µM [rising, partial curve, poor fit].

`CCN(CC)c1ccc(/C=C(\C#N)c2ccccn2)cc1`: the AC50 is, setting by setting: under setting [1], 6.51 µM [rising, single point]; under setting [2], 16.4 µM [falling, partial curve, poor fit].

As for `COc1ccc(-n2c(SCC(=O)O)nnc2-c2ccc(NC(=O)c3ccccc3)cc2)cc1`, the AC50 under setting [1] is 3.16 µM [falling, single point].

On to `CC(C)(C)NC(=O)c1cc(F)c(F)cc1Cl`, for which the AC50 under setting [1] was 6.51 µM [falling, single point].

As to `O=C(Nc1cc(Br)ccc1O)c1cc(-c2cccs2)on1`, under setting [1], the half-maximal activity concentration (AC50) is 7.08 µM [falling, full curve, poor fit].

Turning to `N=c1ccn(Cc2ccccc2Cl)cc1`, under setting [1], the AC50 is 3.66 µM [falling, full curve, poor fit].

As to `O=C1COc2ccc(C(=O)COC(=O)Cc3ccccc3F)cc2N1`, the AC50 under setting [1] was 11.2 µM [rising, single point].

For `CC(C)c1cc(O)c(-c2ccccc2)c(=O)n1-c1ccc(Cl)cc1`, the half-maximal activity concentration (AC50) under setting [1] was 25.1 µM [rising, single point].

Take `Cc1cc(C)cc(NC(=O)CSc2nc(N)c(NC(=O)c3cccs3)c(=O)[nH]2)c1`: the AC50 under setting [1] was 29.1 µM [rising, single point].

As to `CN(C)CCCSc1ccccc1NC(=O)/C=C/c1ccccc1`, the AC50 under setting [1] is 0.316 µM [falling, full curve].

With `CCc1ccccc1Nc1cc(C(=O)NCc2ccccn2)c2ccccc2n1`, the AC50 under setting [1] is 4.47 µM [falling, partial curve, poor fit].

As to `O=c1oc2ccccc2c(N2CCCCC2)c1CN1CCCCC1`, the AC50 under setting [1] was 1.03 µM [falling, full curve].

For the molecule `Cc1ccc(/C=N/NC(=O)CN(Cc2ccccc2)S(=O)(=O)c2ccc3c(c2)OCCO3)cc1`, the AC50 under setting [2] is 18.4 µM [falling, partial curve, poor fit].

With `O=[N+]([O-])c1cc(Oc2cccnc2)cc([N+](=O)[O-])c1`, the AC50 under setting [1] is 29.1 µM [rising, single point].

As to `COc1cc(SC)ccc1C(=O)N1CCN(Cc2ccc3c(c2)OCO3)CC1`, under setting [1], the AC50 was 20 µM [falling, partial curve, poor fit].

In the case of `O=C(Nn1c(SCc2ccccc2F)nc2ccsc2c1=O)c1ccccc1`, the AC50 under setting [1] is 5.17 µM [rising, full curve, poor fit].

As to `Cc1oc2ccc(OCc3ccccc3F)cc2c1C(=O)O`, under setting [1], the AC50 was 1.64 µM [rising, full curve, poor fit].

For the origin of these results see PubChem BioAssay AID493014 (National Center for Advancing Translational Sciences (NCATS), 2011).
